Reference: paper PMC7430634, “Inactivation of the dimeric RappLS20 anti-repressor of the conjugation operon is mediated by peptide-induced tetramerization” (Nucleic Acids Research, 2020)

T1: 6-FAM-Phr*_(pLS20) (GQKGMY with N-terminal fluorescein) (Bacillus subtilis plasmid pLS20)
T1 sequence (peptide, fluorescein (6-FAM) label on the N-terminus): GQKGMY


Columns and labels:
[1] = target: T1, 6-FAM-Phr*_(pLS20) (GQKGMY with N-terminal fluorescein) (Bacillus subtilis plasmid pLS20); test: fluorescence polarisation; equilibrium competition: native Phr*_(pLS20) 0.6–1250 μM against 10 μM Rap_(pLS20) and 50 nM 6-FAM-Phr*_(pLS20); 20 mM Tris pH 7.5, 150 mM NaCl, 1 mM DTT, 0.01% Triton X-100; 25°C; both purified
[2] = target: T1, 6-FAM-Phr*_(pLS20) (GQKGMY with N-terminal fluorescein) (Bacillus subtilis plasmid pLS20); test: fluorescence polarisation; direct titration: Rap_(pLS20) varied 0.1–100 μM, 50 nM 6-FAM-Phr*_(pLS20); 20 mM Tris pH 7.5, 150 mM NaCl, 1 mM DTT, 0.01% Triton X-100; 25°C; both purified
[3] = target: Rap_(pLS20) (Bacillus subtilis plasmid pLS20); test: crystal structure; Rap_(pLS20)/Phr*_(pLS20) complex, peptide added at 1:5 (Rap:Phr*), space group C2, four protein molecules in the asymmetric unit; 2.5% PEG8K, 8% ethylene glycol, 0.1 M MES pH 6.8, 18°C; both purified

Row | binding [1] | binding [2] | binding [3] | Molecule
1 | binds | binds | – | Rap_(pLS20) (Bacillus subtilis plasmid pLS20)
2 | – | – | binds | QKGMY [Phr*_(pLS20) peptide (QKGMY)]

No constants are given. Whether binding was seen depends on the method and setting. A result given as binding can be weak or reduced; the word gives no strength.
